Source: the supplement of paper PMC12889115
The list shows a part of the results. Values are raw readings; no control value is given beside them.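 In the initial screen, polymyxin B was used at a concentration that permeabilizes Salmonella's outer membrane but not its inner membrane. Maximum growth was set by DMSO wells with or without polymyxin B. Since plates varied, data were ranked per plate, and compounds giving the lowest OD600 advanced as hits.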

Test system: Salmonella enterica serovar Typhimurium SL1344
Test: bacterial growth OD600 after 18 h with compound and polymyxin B; higher = more bacterial growth (less inhibition)
Conditions: 50 µM, Mueller-Hinton broth

SMILES: COc1cccc(-c2ccnc(-n3ncc(C(=O)N4CCN(CCO)CC4)c3C3CC3)n2)c1
- bacterial growth OD600 (polymyxin B 0.75 µg/mL): 0.996

SMILES: O=C(CCN1CCCCO1)N1CCc2onc(-c3ccc(F)c(F)c3)c2C1
- bacterial growth OD600 (polymyxin B 0.75 µg/mL): 0.812

SMILES: COc1ccc(CN2CCN(Cc3ccc(Cl)cc3)CC2CCO)cc1C (centres undefined)
- bacterial growth OD600 (polymyxin B 1 µg/mL): 0.976

SMILES: Cc1ccoc1C(=O)NC1CC(=O)N(Cc2cccc3ccccc23)C1 (centres undefined)
- bacterial growth OD600 (polymyxin B 1 µg/mL): 0.856

SMILES: COc1ccc(CCNC(=O)c2cn(C(C)C)cc(C(=O)NC(C)(C)C)c2=O)cc1OC
- bacterial growth OD600 (polymyxin B 0.75 µg/mL): 0.723

SMILES: COc1cccc(C(=O)C2CCCN(Cc3nc(-c4ccccc4)cs3)C2)c1 (centres undefined)
- bacterial growth OD600 (polymyxin B 0.75 µg/mL): 0.162

SMILES: Cc1cc(C)nc(CNC(=O)c2cccc(OC3CCN(S(C)(=O)=O)CC3)c2)n1
- bacterial growth OD600 (polymyxin B 1 µg/mL): 1.02

SMILES: CCC(NC(=O)C1(N2CCN(CC)CC2)Cc2ccccc2C1)c1ccncc1 (centres undefined)
- bacterial growth OD600 (polymyxin B 0.75 µg/mL): 0.912

SMILES: COCCn1cnc2cc(NC(=O)C3CCCCC3)cc(C(=O)N3CCC(c4ccccc4)CC3)c21
- bacterial growth OD600 (polymyxin B 0.75 µg/mL): 0.009

SMILES: O=C(NCc1ccccn1)c1cccc(OC2CCN(C(=O)C3CCCC3)CC2)c1
- bacterial growth OD600 (polymyxin B 1 µg/mL): 1.01

SMILES: c1ccc(COC2CCN(Cc3nc(-c4ccc5c(c4)OCO5)no3)CC2)nc1
- bacterial growth OD600 (polymyxin B 1 µg/mL): 0.913

SMILES: C=CCC(O)(CC=C)C(C)NC(=O)C1CCCN1c1nc(C)c2cc(OC)ccc2n1 (centres undefined)
- bacterial growth OD600 (polymyxin B 0.75 µg/mL): 0.772

SMILES: O=C(CCc1ccccc1)Nc1ccc(N2CCC(NCCCOc3cccnc3)CC2)cc1
- bacterial growth OD600 (polymyxin B 0.75 µg/mL): 0.827

SMILES: COc1ccc(CC2(CCC(=O)N3CCCC(c4ccccc4)C3)CCC(=O)N2)c2ccccc12 (centres undefined)
- bacterial growth OD600 (polymyxin B 0.75 µg/mL): 0.041

SMILES: O=C(Cn1nnnc1CN1CCCC1)NCCCN1CCCc2ccccc21
- bacterial growth OD600 (polymyxin B 0.75 µg/mL): 0.74

SMILES: CCCc1cc(C(=O)N2CCC(C3(CC)NC(=O)N(Cc4ccc5c(c4)OCO5)C3=O)CC2)n(C)n1 (centres undefined)
- bacterial growth OD600 (polymyxin B 0.75 µg/mL): 0.741

SMILES: O=C(NC1CCCC1)c1ccc(N2CCC(NCc3cccc(C(F)(F)F)c3)CC2)cc1
- bacterial growth OD600 (polymyxin B 0.75 µg/mL): 0.004

SMILES: CC(NC(=O)c1cccc(OC2CCN(C(=O)C3CC3)CC2)c1)c1ccc(F)cc1 (centres undefined)
- bacterial growth OD600 (polymyxin B 1 µg/mL): 0.923

SMILES: COc1ccccc1CNC(=O)c1c(OC)cc(=O)n2c1CCN(Cc1ccc(C)c(C)c1)CC2
- bacterial growth OD600 (polymyxin B 0.75 µg/mL): 0.731

SMILES: COc1ccc(CN2CCN(Cc3cccc(F)c3)CC2CCO)cc1C (centres undefined)
- bacterial growth OD600 (polymyxin B 1 µg/mL): 0.873

SMILES: CCC(O)C1CCN(C(=O)CC2(c3ccccc3Cl)CC(=O)N(C3CCCC3)C2=O)CC1 (centres undefined)
- bacterial growth OD600 (polymyxin B 0.75 µg/mL): 0.568

SMILES: Cc1ccccc1-n1cc(CN(C)C(=O)Cn2nnnc2CN2CCC(C)CC2)cn1
- bacterial growth OD600 (polymyxin B 0.75 µg/mL): 0.643

SMILES: Cc1ccccc1N1CCC(N2CCN(CC3CCCCC3)C(CCO)C2)CC1 (centres undefined)
- bacterial growth OD600 (polymyxin B 1 µg/mL): 0.886

SMILES: O=C1CCCN1CCC(=O)N1CCCC(CCc2cccc(C(F)(F)F)c2)C1 (centres undefined)
- bacterial growth OD600 (polymyxin B 0.75 µg/mL): 0.464

SMILES: COc1ccc(OCc2nc(C(=O)NC(C)(C)C)co2)cc1
- bacterial growth OD600 (polymyxin B 1 µg/mL): 0.868

SMILES: O=C(NC1CCCC1)c1ccc(OC2CCN(C(=O)C3CCCO3)CC2)c(Cl)c1 (centres undefined)
- bacterial growth OD600 (polymyxin B 1 µg/mL): 0.889

SMILES: Cc1ccc(S(=O)(=O)N2CCCC(CNC(=O)c3ccco3)C2)s1 (centres undefined)
- bacterial growth OD600 (polymyxin B 0.75 µg/mL): 0.832

SMILES: Cc1ccccc1CC(=O)N1CCC(CCC(=O)NC2CC2)CC1
- bacterial growth OD600 (polymyxin B 1 µg/mL): 0.958

SMILES: CC#CCN1C(=O)NC(CCc2ccccc2)(C2CCN(C(=O)/C=C/c3cccc(F)c3)CC2)C1=O (centres undefined)
- bacterial growth OD600 (polymyxin B 0.75 µg/mL): 0.009
